{"source": "paper PMC10419174", "about": "“WR1065 conjugated to thiol-PEG polymers as novel anticancer prodrugs: broad spectrum efficacy, synergism, and drug resistance reversal” (Frontiers in Oncology, 2023)", "tested_on": "Strain-2 and Strain-3 NHMECs", "type": "cell-based", "from_the_text": "Normal human mammary epithelial cell (NHMEC) strains used to assess potential cytotoxicity of 4SP65 and 1LP65 were established from reduction mammoplasty tissue from a healthy donor (M99005 or ‘Strain-1’) ([53]) or purchased from ATCC (Manassas, VA, USA; batch#70043304 or ‘Strain-2’) or Cell Applications (San Diego, CA, USA; lot#1669 or ‘Strain-3’). Human cancer cell lines including HCC38, MDA-MB-231, A549, National Cancer Institute (NCI)-H460, NCI-H1437, NCI-H1975, DU145, LNCaP, PC3, PANC1, SKOV3, and HL60, which were free of Mycoplasma, were purchased from ATCC. HMESO1, PPMMill, and TOV21G cells, obtained from Dr. Brian Cunniff, were verified to be Mycoplasma negative using the LookOut® Mycoplasma PCR Detection Kit (Sigma-Aldrich) and to match previously annotated DNA fingerprints by the Vermont Integrative Genomics Resource DNA Analysis Facility.\nTo assess the effects of 4SP65 or 1LP65 on the growth of normal epithelium, experiments were performed using NHMEC strains from differing donors ([53]). Strain-1 NHMECs were plated at 5,000 cells/well in 24-well plates and allowed to reach 50% confluence before treatment with 0-150 µM 4SP65 for 48 h. Cell viability was determined using a hemocytometer and trypan blue exclusion assay. Two other NHMEC strains, exposed to 0-150 µM 4SP65 or 0-500 µM 1LP65 for 48 h, were handled in the same fashion except that viability of cells in 96-well plates was determined using CyQUANT dye. Due to the short life span of these NHMECs, standard curves were not generated and fluorescence readings were used as a surrogate marker of cell number ([54]).", "note": "Where two headings read alike, the source gives them in different places."}
{"molecule": "4-star-PEG-S-S-WR1065 [4SP65]", "values": [{"measurement": "average effect per unit dose (% growth ÷ exposure concentration)", "setting": "9 µM drug", "result": 8.7}, {"measurement": "average effect per unit dose (% growth ÷ exposure concentration)", "setting": "30 µM drug", "result": 1.70}, {"measurement": "average effect per unit dose (% growth ÷ exposure concentration)", "setting": "90 µM drug", "result": 0.23}, {"measurement": "average effect per unit dose (% growth ÷ exposure concentration)", "setting": "150 µM drug", "result": 0.058}]}
{"molecule": "COCCOCCOCCOCCOCCOCCSSCCNCCCN.O=C(O)C(F)(F)F.O=C(O)C(F)(F)F", "note": "[1LP65, m-PEG6-S-S-WR1065]", "values": [{"measurement": "average effect per unit dose (% growth ÷ exposure concentration)", "setting": "90 µM drug", "result": 2.9}, {"measurement": "average effect per unit dose (% growth ÷ exposure concentration)", "setting": "150 µM drug", "result": 0.31}, {"measurement": "average effect per unit dose (% growth ÷ exposure concentration)", "setting": "300 µM drug", "result": 0.06}, {"measurement": "average effect per unit dose (% growth ÷ exposure concentration)", "setting": "500 µM drug", "result": 0.03}]}
